For seven compounds, IC50 results are on record in patent publication US7427615B2, “3-substituted-4-pyrimidone derivatives” (Mitsubishi Pharma Corporation, priority 2001, dated 2008).

Amino acid sequences for entries named in this document (tags omitted). Residues count along the entry.
UniProt A0A3Q1MT31, 1-419: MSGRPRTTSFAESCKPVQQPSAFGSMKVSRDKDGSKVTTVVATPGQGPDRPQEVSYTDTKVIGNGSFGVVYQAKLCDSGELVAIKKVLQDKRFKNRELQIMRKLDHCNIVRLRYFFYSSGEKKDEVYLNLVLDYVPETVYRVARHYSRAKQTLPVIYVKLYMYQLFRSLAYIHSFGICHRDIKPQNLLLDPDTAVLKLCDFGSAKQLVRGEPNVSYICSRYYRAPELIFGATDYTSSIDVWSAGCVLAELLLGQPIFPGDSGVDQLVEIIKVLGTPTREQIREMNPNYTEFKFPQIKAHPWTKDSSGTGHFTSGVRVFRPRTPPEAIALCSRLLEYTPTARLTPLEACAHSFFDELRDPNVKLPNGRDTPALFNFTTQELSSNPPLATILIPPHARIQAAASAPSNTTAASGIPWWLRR

A word on the IC50: it is the concentration that inhibits the measured activity by half.

The structures given here were assigned with low confidence; some may be wrong.

The target of the test is bovine cerebral TPK1 (Bos taurus, UniProt A0A3Q1MT31). The test is described as follows: Inhibitory activity against P-GS1 phosphorylation by bovine cerebral TPK1. The conditions noted are these: 41.7 μM [γ-32P]ATP, 25° C., 2 hours, pH 6.5. The method, then:
Test Example: Inhibitory activity of the medicament of the present invention against P-GS1 phosphorylation by bovine cerebral TPK1
A mixture containing 100 mM MES-sodium hydroxide (pH 6.5), 1 mM magnesium acetate, 0.5 mM EGTA, 5 mM β-mercaptoethanol, 0.02% Tween 20, 10% glycerol, 12 μg/ml P-GS1, 41.7 μM [Υ-^32P] ATP (68 kBq/ml), bovine cerebral TPK1 and a compound shown in Table (a final mixture contained 1.7% DMSO deriving from a solution of a test compound prepared in the presence of 10% DMSO) was used as a reaction system. The phosphorylation was started by adding ATP, and the reaction was conducted at 25° C. for 2 hours, and then stopped by adding 21% perchloric acid on ice cooling. The reaction mixture was centrifuged at 12,000 rpm for 5 minutes and adsorbed on P81 paper (Whatmann), and then the paper was washed four times with 75 mM phosphoric acid, three times with water and once with acetone. The paper was dried, and the residual radioactivity was measured using a liquid scintillation counter.
Consider `COc1ccc(C2CN(c3nc(-c4ccncc4)cc(=O)n3C)CCO2)c(OC)c1` (stereo not shown), for which the half-maximal inhibitory concentration (IC50) is 0.9 nM.

Turning to `Cn1c(N2CCOC(c3ccc(CN4CCCC4)cc3)C2)nc(-c2ccncc2)cc1=O` (racemic), the IC50 came out at 4.7 nM.

`Cn1c(N2CCOC(c3cccc4c3OCC4)C2)nc(-c2ccncc2)cc1=O` (stereo not shown) yielded an IC50 of 1.2 nM.

As for `COc1ccc(OC)c(C2CN(c3nc(-c4ccncc4)cc(=O)n3C)CCO2)c1` (racemic), the IC50 came to 0.28 nM.

For the compound `COc1ccc([C@H]2CN(c3nc(-c4ccncc4)cc(=O)n3C)CCO2)c(OC)c1`, the IC50 was found to be 0.3 nM.

In the case of `COc1ccccc1C(=O)C1CCCN(c2nc(-c3ccncc3)cc(=O)n2C)C1` (stereo not shown), the half-inhibitory concentration (IC50) is 9 nM.

Compound `Cn1c(N2CCCC(C(=O)c3ccc(Cl)s3)C2)nc(-c2ccncc2)cc1=O` (stereo not shown) yielded an IC50 of 10 nM.
